In patent publication US5498601A (Nippon Steel Corporation, priority 1992, dated 1996):

Assay: general procedure: Fmoc solid-phase peptide synthesis; p-Alkoxybenzyl alcohol type resin; Diisopropylcarbodiimide/HOBT
Conditions: whole synthesis, scale 0.25 mmol, acetate

For PSRGDW-OH, the isolated mass was 40 mg.

No end group written: not given here.
